Measured values from publication PMC11231755.
Results are given in words; binding and its absence hold for the method and conditions named. Binding calls can cover weak binding; strength is not graded here.

Assays:
[1] = molecular target: T1, T25-ORF6^O4 (Klebsiella pneumoniae) (UniProt Q767E1); test: two-hybrid; bacterial adenylate cyclase two-hybrid (T18 and T25 fusions) in E. coli BTH101, 0.5 mM IPTG, 30 °C; β-galactosidase activity in microplates and colour on agar plates
T1 sequence: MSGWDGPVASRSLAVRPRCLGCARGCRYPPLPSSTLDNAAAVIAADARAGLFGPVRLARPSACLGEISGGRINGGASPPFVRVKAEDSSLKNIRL

[2] = molecular target: T2, ORF6^O7-T25 (Klebsiella pneumoniae) (UniProt Q767E1); test: as above
T2 sequence: T1 sequence

Substance | binding [1] | binding [2]
ORF5^O4-T18 (Klebsiella pneumoniae) (enzyme) | binds | –
ORF7^O7-T18 (Klebsiella pneumoniae) (enzyme) | – | binds
